No constants are given. Whether binding was seen depends on the method and setting. Binding calls can cover weak binding; strength is not graded here. Where a sequence is shown, tags or fusion partners need not be part of it.
Legend:
Test in all cases: pull-down; 2 μg GST-tagged protein on GSH-sepharose 4B, blocked with BSA; 2 μg His6-tagged protein added, 1 h at room temperature in 40 mM Tris-HCl pH 7.5, 10 mM MgCl2, 1 mM DDM, 0.2% BSA; washed with 50 mM NaCl; Western blot with anti-SA2056 or anti-His6; both purified
[1] = molecular target: T1, GST-FemB (Staphylococcus aureus) (UniProt Q2FYR1)
T1 sequence: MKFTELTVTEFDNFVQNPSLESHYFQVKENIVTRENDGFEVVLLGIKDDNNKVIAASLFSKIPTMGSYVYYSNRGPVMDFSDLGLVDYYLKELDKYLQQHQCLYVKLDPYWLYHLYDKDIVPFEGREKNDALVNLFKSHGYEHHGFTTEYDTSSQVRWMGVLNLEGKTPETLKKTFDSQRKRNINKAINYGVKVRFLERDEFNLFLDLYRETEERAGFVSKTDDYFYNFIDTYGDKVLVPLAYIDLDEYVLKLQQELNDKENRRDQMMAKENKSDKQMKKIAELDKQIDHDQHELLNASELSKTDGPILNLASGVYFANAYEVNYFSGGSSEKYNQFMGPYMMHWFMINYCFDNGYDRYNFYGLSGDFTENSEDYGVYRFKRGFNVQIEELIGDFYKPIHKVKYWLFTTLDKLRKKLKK

[2] = molecular target: T2, GST-FemA (Staphylococcus aureus) (UniProt P0A0A5)
T2 sequence: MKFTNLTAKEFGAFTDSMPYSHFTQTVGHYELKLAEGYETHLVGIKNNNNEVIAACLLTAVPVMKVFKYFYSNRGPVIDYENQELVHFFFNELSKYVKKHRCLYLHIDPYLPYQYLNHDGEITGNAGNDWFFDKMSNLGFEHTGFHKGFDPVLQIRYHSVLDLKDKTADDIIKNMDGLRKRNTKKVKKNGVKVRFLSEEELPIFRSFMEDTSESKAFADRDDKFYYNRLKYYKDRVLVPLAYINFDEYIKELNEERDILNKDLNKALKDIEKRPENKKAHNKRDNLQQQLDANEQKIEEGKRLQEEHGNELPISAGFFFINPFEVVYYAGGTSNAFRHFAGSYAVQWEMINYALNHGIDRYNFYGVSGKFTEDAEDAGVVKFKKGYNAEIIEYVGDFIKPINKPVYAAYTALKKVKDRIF

[3] = molecular target: T3, GST-FemX (Staphylococcus aureus) (UniProt Q2FVZ4)
T3 sequence: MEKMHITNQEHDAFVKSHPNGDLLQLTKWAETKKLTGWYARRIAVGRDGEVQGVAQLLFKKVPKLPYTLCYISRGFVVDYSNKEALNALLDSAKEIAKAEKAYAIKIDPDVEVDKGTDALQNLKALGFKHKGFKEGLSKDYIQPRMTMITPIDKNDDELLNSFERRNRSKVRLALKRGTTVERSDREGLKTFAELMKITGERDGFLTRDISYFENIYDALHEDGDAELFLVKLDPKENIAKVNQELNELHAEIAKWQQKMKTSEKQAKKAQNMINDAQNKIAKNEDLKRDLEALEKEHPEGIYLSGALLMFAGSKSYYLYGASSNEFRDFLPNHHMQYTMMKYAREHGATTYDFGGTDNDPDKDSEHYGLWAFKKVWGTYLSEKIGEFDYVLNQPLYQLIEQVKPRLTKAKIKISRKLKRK

In the case of SA2056-His6 (Staphylococcus aureus), the binding [1] was “binds”, the binding [2] was “binds weakly” and the binding [3] was “binds weakly”.
